Among the data in paper PMC11667169 are binding values, retold here.

Sequences of proteins named here, by UniProt entry; tags and fusion partners are left off. A change or cut given only in a name is not applied to a line headed by its entry.
UniProt Q99720: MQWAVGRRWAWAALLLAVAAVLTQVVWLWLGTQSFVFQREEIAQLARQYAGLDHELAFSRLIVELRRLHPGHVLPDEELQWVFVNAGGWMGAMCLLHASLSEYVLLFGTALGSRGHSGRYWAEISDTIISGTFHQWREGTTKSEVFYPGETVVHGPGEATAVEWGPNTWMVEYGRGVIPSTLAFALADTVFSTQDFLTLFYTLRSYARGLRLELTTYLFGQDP
UniProt P06199: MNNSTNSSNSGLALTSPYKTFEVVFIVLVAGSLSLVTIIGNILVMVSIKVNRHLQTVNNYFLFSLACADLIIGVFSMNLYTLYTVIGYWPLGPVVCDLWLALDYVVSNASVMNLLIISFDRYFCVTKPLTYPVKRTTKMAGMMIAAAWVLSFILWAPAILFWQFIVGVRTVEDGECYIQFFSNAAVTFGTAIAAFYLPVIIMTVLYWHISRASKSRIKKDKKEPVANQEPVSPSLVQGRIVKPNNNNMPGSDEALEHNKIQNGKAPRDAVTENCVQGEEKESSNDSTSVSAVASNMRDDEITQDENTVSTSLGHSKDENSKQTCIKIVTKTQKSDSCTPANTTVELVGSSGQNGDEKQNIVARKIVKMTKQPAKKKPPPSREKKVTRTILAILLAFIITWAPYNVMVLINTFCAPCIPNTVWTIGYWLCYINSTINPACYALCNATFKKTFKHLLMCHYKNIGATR

Results are given in words; binding and its absence hold for the method and conditions named. Binding seen in cells or lysates may run through a third protein. Some results given as binding are weak or reduced against the parent protein; the word gives no strength.

Holding throughout (test): co-IP; HEK293T cells co-transfected with tagged M2R (or mutant) and S1R-V5-His (or E102Q), lysed after 48 h; lysate precleared with protein G Sepharose; IP with mouse anti-EGFP antibody (M2R) or mouse anti-V5 antibody (S1R) and G-Sepharose, 2 h at 4 °C, three washes; Western blot with anti-M2R (or anti-EGFP) and anti-His antibodies
A general note: In western blotting, separated proteins are transferred to a membrane and probed.

The target in assay [1] is S1R E102Q with V5 and His tags (human) (UniProt Q99720).
The target in assay [2] is Sigma-1 receptor tagged with V5 and His tags (S1R-V5-His) (human) (UniProt Q99720).
Assay [3] concerns the target M2-muscarinic acetylcholine receptor tagged with EGFP (M2R-EGFP) (porcine) (UniProt P06199).
For another assay, the target named is M2R A401T-CFP (porcine) (UniProt P06199).
Assay [4] addresses M2R E172P/E175Q-CFP (porcine) (UniProt P06199).
The next assay concerns the target M2R-CFP (porcine) (UniProt P06199).

On to “M2-muscarinic acetylcholine receptor tagged with EGFP (M2R-EGFP) (from UniProt P06199 1-466)”, for which the binding result in assay [1] and in assay [2] was “binds” each time. Consider “M2R A401T-CFP (from UniProt P06199 1-466) (receptor)”, for which the binding entry in assay [2] is “binds”. Still for that read-out and setting: the entry for “M2R E172P/E175Q-CFP (from UniProt P06199 1-466) (receptor)” is “binds”; for “M2R-CFP (from UniProt P06199 1-466) (receptor)” it is “binds”.

In the case of “S1R E102Q with V5 and His tags (from UniProt Q99720 1-223)”, the binding result in assay [3] was “binds”. Consider “Sigma-1 receptor tagged with V5 and His tags (S1R-V5-His) (from UniProt Q99720 1-223)”, for which the binding result (in assay [3]; with M2R A401T-CFP (porcine); in assay [4]; in the assay with M2R-CFP (porcine)) was “binds” each time.
